Measurements reported in PubChem BioAssay AID1259254 (NCATS, 2017).
Screen: 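Finding genes that stop cells copying their DNA twice in one cycle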 (primary screen). Cell system: human HCT116 colorectal cancer cells. Knock-down reagent: single siRNA against human genes. Duration: 3 days. Detection: 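Imaged Hoechst DNA stain sorts each cell into a cycle phase by DNA amount; per plate, G2 fraction set to 0% for non-targeting and 100% for GMNN siRNA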. Reading the numbers: G2 robust z-score and G2 cells, % of GMNN control: higher = more G2 cells, more excess DNA replication. Rule for the call: 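Active siRNAs have a G2 robust z of 5 or more median absolute deviations over the median, which in these data means about 38% or higher of GMNN control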.
In all, the deposit lists about 59,000 reagents; shown is a part drawn at random. About 1,550 of all reagents (2.6%) count as active. 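G2 share is only a proxy for re-replication; each gene was hit by three separate siRNAs, and active genes were retested.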 Not all columns of the deposit are shown. Not stated in the record: the amount of reagent.

For ADAP2 (GeneID 55803) [SID160744403], the values are G2 robust z-score 0.14; G2 cells, % of GMNN control 3.95; inactive.
With knock-down of ADAP2 (GeneID 55803) [SID160744404], the record shows G2 robust z-score -0.269; G2 cells, % of GMNN control 1.07; inactive.
ADAP2 (GeneID 55803) [SID160744405] gave G2 robust z-score 5.36; G2 cells, % of GMNN control 40.7; active.
FSHB (GeneID 2488) [SID160767393] showed G2 robust z-score -1.05; G2 cells, % of GMNN control -4.45; inactive.
Knock-down of FSHB (GeneID 2488) [SID160767400] came out at: G2 robust z-score 0.683; G2 cells, % of GMNN control 7.77; inactive.
Knock-down of FSHB (GeneID 2488) [SID160767408] gave: G2 robust z-score -0.425; G2 cells, % of GMNN control -0.0227; inactive.
With knock-down of SLC6A7 (GeneID 6534) [SID160716868] the results were G2 robust z-score 0.151; G2 cells, % of GMNN control 4.03; inactive.
For SLC6A7 (GeneID 6534) [SID160716869], the values are G2 robust z-score -0.456; G2 cells, % of GMNN control -0.244; inactive.
Silencing of SLC6A7 (GeneID 6534) [SID160716870] came out at: G2 robust z-score -0.848; G2 cells, % of GMNN control -3; inactive.
Against POC5 (GeneID 134359) [SID160757331], the values are G2 robust z-score -0.622; G2 cells, % of GMNN control -1.41; inactive.
POC5 (GeneID 134359) [SID160757332] scored G2 robust z-score 0.0641; G2 cells, % of GMNN control 3.42; inactive.
Depletion of POC5 (GeneID 134359) [SID160757333] resulted in: G2 robust z-score 1.45; G2 cells, % of GMNN control 13.2; inactive.
With knock-down of OR4A5 (GeneID 81318) [SID160750710], the record shows G2 robust z-score 0.0323; G2 cells, % of GMNN control 3.19; inactive.
After knock-down of OR4A5 (GeneID 81318) [SID160750712], the screen gave G2 robust z-score 0.316; G2 cells, % of GMNN control 5.19; inactive.
With knock-down of OR4A5 (GeneID 81318) [SID160750713] the results were G2 robust z-score 0.543; G2 cells, % of GMNN control 6.79; inactive.
Silencing of NWD2 (GeneID 57495) [SID160746105] resulted in: G2 robust z-score 0.518; G2 cells, % of GMNN control 6.61; inactive.
Against NWD2 (GeneID 57495) [SID160746106] the deposit lists G2 robust z-score -0.164; G2 cells, % of GMNN control 1.82; inactive.
With knock-down of NWD2 (GeneID 57495) [SID160746107] the results were G2 robust z-score 0.062; G2 cells, % of GMNN control 3.4; inactive.

Hits, of those listed so far:
ADAP2 (GeneID 55803) [SID160744405] → G2 robust z-score = 5.36; G2 cells, % of GMNN control = 40.7; activity call = active
